Measurements reported in PubChem BioAssay AID652243 (Drosophila RNAi Screening Center, 2013)
The screen tested about 24,000 reagents; shown is a random part of those with a known target gene and a result. Over the whole deposit, 246 (1%) got an active call. 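Plates not normalised; calls are printed but the firefly/Renilla ratio behind them is not deposited; fold cut for lowering reported inconsistently.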 The raw values are shown without normalisation. Names joined by + are all predicted targets of the reagent. No sequences are given here. Not given: the amount of reagent.

Screen: 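Knock-downs that decrease or increase androgen receptor reporter signal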 (primary screen)
Cell system: Drosophila S2R+ cells
Reagents: long dsRNA against Drosophila genes
Duration: 72 h (48 h, then 24 h hormone)
Challenge: synthetic androgen R1881 at 10 nM for 24 h
Detection: 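Per-well raw luminescence of the androgen-driven firefly reporter and of the Renilla control, two replicates each, without normalisation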
Direction: firefly reporter light: higher = more light from androgen-responsive reporter; Renilla control light: higher = more constitutive control signal (cell number, transfection)
Call rule: 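Across duplicate plates, a knock-down whose log firefly/Renilla ratio shifted a set fold down or up from the GFP/LacZ control mean was a hit; the downward cut appears as both 1.5 and 3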
Meaning of the calls: active = hit: reporter lowered or raised; inactive = no hit

The opening 7 entries, ahead of the listing:
gene | dsRNA | firefly reporter light, replicate 1 | firefly reporter light, replicate 2 | Renilla control light, replicate 1 | Renilla control light, replicate 2 | outcome
RpS28-like | DRSC38760 | 1.07e6 | 8.97e5 | 2.13e6 | 1.78e6 | inactive
Ggamma30A + borr | DRSC24954 | 6.42e5 | 6.84e5 | 9.90e5 | 1.06e6 | inactive
CG31910 | DRSC28186 | 9.37e5 | 9.05e5 | 1.66e6 | 1.71e6 | inactive
CG34198 | DRSC38708 | 7.64e5 | 6.79e5 | 1.38e6 | 1.44e6 | inactive
CG4168 | DRSC01447 | 3.10e5 | 3.62e5 | 5.53e5 | 6.05e5 | inactive
CG4168 | DRSC01933 | 1.07e6 | 1.26e6 | 1.43e6 | 1.33e6 | inactive
CG4168 | DRSC21319 | 7.24e5 | 7.31e5 | 2.42e6 | 1.63e6 | inactive

The listing, repeating the preview:
gene | dsRNA | firefly reporter light, replicate 1 | firefly reporter light, replicate 2 | Renilla control light, replicate 1 | Renilla control light, replicate 2 | outcome
RpS28-like | DRSC38760 | 1.07e6 | 8.97e5 | 2.13e6 | 1.78e6 | inactive
Ggamma30A + borr | DRSC24954 | 6.42e5 | 6.84e5 | 9.90e5 | 1.06e6 | inactive
CG31910 | DRSC28186 | 9.37e5 | 9.05e5 | 1.66e6 | 1.71e6 | inactive
CG34198 | DRSC38708 | 7.64e5 | 6.79e5 | 1.38e6 | 1.44e6 | inactive
CG4168 | DRSC01447 | 3.10e5 | 3.62e5 | 5.53e5 | 6.05e5 | inactive
CG4168 | DRSC01933 | 1.07e6 | 1.26e6 | 1.43e6 | 1.33e6 | inactive
CG4168 | DRSC21319 | 7.24e5 | 7.31e5 | 2.42e6 | 1.63e6 | inactive
CG4168 | DRSC22789 | 4.59e5 | 8.62e5 | 9.73e5 | 1.53e6 | inactive
CG13326 | DRSC06363 | 1.26e6 | 3.91e5 | 1.98e6 | 8.78e5 | inactive
Cpsf6 | DRSC10781 | 5.89e5 | 5.28e5 | 8.61e5 | 1.00e6 | inactive
CG42390 | DRSC23064 | 5.75e5 | 7.52e5 | 1.73e6 | 2.04e6 | inactive
CG42390 | DRSC23065 | 8.23e5 | 8.34e5 | 2.26e6 | 2.31e6 | inactive
Glo1 | DRSC06657 | 3.63e5 | 4.16e5 | 1.83e6 | 1.71e6 | inactive
Lhr | DRSC06759 | 1.24e6 | 7.03e5 | 1.99e6 | 1.38e6 | inactive
Lhr | DRSC26915 | 3.78e5 | 4.18e5 | 3.57e5 | 2.53e5 | inactive
CG13423 | DRSC06386 | 77263 | 1.28e5 | 1.24e6 | 1.30e6 | inactive
CG6006 | DRSC13137 | 89109 | 73236 | 2.03e5 | 2.20e5 | inactive
CG6006 | DRSC15946 | 94502 | 44364 | 3.83e5 | 4.24e5 | inactive
UQCR-14 | DRSC19870 | 6.09e5 | 6.26e5 | 3.99e6 | 3.25e6 | inactive
UQCR-14 | DRSC25269 | 6.84e5 | 7.58e5 | 1.16e6 | 1.33e6 | inactive
bnk | DRSC16912 | 1.45e5 | 1.27e5 | 1.69e6 | 2.60e6 | inactive
bnk | DRSC29887 | 6.17e5 | 6.64e5 | 1.08e6 | 1.15e6 | inactive
Rsph3 | DRSC09696 | 7.49e5 | 7.76e5 | 1.59e6 | 2.23e6 | inactive
Rsph3 | DRSC10211 | 2.54e5 | 2.24e5 | 2.65e6 | 2.82e6 | inactive
Rsph3 | DRSC26917 | 5.09e5 | 5.62e5 | 7.24e5 | 8.70e5 | inactive
ctrip | DRSC12242 | 50690 | 1.00e5 | 2.04e6 | 2.13e6 | inactive
ctrip | DRSC12287 | 33548 | 29868 | 4.90e5 | 5.67e5 | inactive
ctrip | DRSC22449 | 1.24e5 | 3.17e5 | 4.01e5 | 8.57e5 | inactive
ctrip | DRSC23512 | 1.31e6 | 1.29e6 | 6.48e5 | 6.61e5 | inactive
ctrip | DRSC27589 | 2.30e5 | 1.71e5 | 4.50e5 | 6.77e5 | inactive
Jheh2 | DRSC06530 | 94712 | 1.22e5 | 1.72e6 | 1.52e6 | inactive
Jheh2 | DRSC25496 | 5.06e5 | 4.16e5 | 4.79e5 | 4.65e5 | inactive
CG3117 | DRSC38930 | 9.75e5 | 9.35e5 | 2.47e6 | 2.06e6 | inactive
Burs | DRSC14595 | 2.51e5 | 2.40e5 | 2.68e6 | 2.96e6 | inactive
CG31624 | DRSC02617 | 9.36e5 | 8.88e5 | 2.51e6 | 2.55e6 | inactive
CG5080 | DRSC00677 | 5.26e5 | 6.23e5 | 1.23e6 | 1.01e6 | inactive
Fntb | DRSC15244 | 59073 | 52104 | 3.98e5 | 4.11e5 | inactive
Fntb | DRSC28158 | 9.33e5 | 6.85e5 | 1.51e6 | 1.03e6 | inactive
CG18563 | DRSC02676 | 1.21e5 | 1.34e5 | 1.55e6 | 1.90e6 | inactive
Rbf | DRSC18704 | 35997 | 47549 | 1.79e5 | 3.50e5 | inactive
Rbf | DRSC25213 | 6.06e5 | 4.12e5 | 4.08e5 | 4.42e5 | inactive
CG11180 | DRSC06055 | 1.07e6 | 1.05e6 | 1.97e6 | 1.92e6 | inactive
CG11180 | DRSC28153 | 2.46e5 | 3.21e5 | 7.90e5 | 9.55e5 | inactive
CG31275 | DRSC16919 | 1.72e5 | 2.06e5 | 2.03e6 | 1.90e6 | inactive
CG14864 | DRSC14987 | 1.23e5 | 1.72e5 | 2.20e6 | 2.45e6 | inactive
CG1344 | DRSC04837 | 1.03e6 | 7.72e5 | 1.23e6 | 1.44e6 | active
CG1344 | DRSC36787 | – | – | – | – | inactive
CG1344 | DRSC36788 | – | – | – | – | inactive
CG31544 (retired record) | DRSC12466 | 1.51e5 | 1.07e5 | 3.27e5 | 3.92e5 | inactive
bnl | DRSC13377 | 2.52e5 | 74656 | 2.11e5 | 86023 | inactive
bnl | DRSC23212 | 5.62e5 | 5.09e5 | 1.25e6 | 8.94e5 | inactive
bnl | DRSC29056 | 3.78e5 | 2.61e5 | 1.53e6 | 1.17e6 | inactive
APC10 | DRSC06071 | 1.05e5 | 1.58e5 | 1.62e6 | 1.62e6 | inactive
Oatp58Da | DRSC04365 | 2.72e5 | 3.07e5 | 2.27e6 | 1.91e6 | inactive
Oatp58Da | DRSC25499 | 5.65e5 | 4.68e5 | 4.76e5 | 3.52e5 | inactive
CrebA | DRSC11122 | 6609 | 16141 | 1.30e5 | 1.43e5 | inactive
mtDNA-helicase | DRSC02912 | 98562 | 1.19e5 | 8.08e5 | 8.63e5 | inactive
spag | DRSC04717 | 2.64e5 | 3.29e5 | 1.35e6 | 1.81e6 | inactive
spag | DRSC36703 | – | – | – | – | inactive
spag | DRSC36704 | – | – | – | – | inactive
